# Experimental data reported in PubChem BioAssay AID1439 (NMMLSC, 2008).
# Chains of the proteins cited; added tags and fusions are not shown.
# UniProt P09471, whole entry, looked up: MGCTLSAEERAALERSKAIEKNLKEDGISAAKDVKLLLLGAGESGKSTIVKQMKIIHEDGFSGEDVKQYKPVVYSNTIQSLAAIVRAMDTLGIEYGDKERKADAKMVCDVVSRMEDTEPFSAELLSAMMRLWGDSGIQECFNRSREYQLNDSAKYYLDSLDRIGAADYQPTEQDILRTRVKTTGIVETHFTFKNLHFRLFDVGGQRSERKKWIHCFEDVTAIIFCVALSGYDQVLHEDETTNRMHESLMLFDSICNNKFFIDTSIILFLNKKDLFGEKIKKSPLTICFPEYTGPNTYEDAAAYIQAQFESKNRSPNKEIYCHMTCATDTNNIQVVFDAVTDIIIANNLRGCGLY
# Screen size: about 220,000 compounds; about 770 (0.35%) were called active. Inconclusive results, whose numbers are uncertain, are shown with a selection of clear calls. No stated cut-off is given here; in the data, active means binding response below about 49% or above about 150%; inconclusive means no clear call, values can overlap the other calls; inactive means in between.
# Molecular target: Guanine nucleotide-binding protein G(o) subunit alpha (Homo sapiens) (UniProt P09471)
# Assay: RGS7-Galphao binding modulators, primary screen, biochemical, multiplexed bead flow cytometry (AID 1439);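 further: fluorescent Galphao held in activated GDP-AlF4 state binding bead-coupled RGS7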
# Conditions: at 10 µM, actives lie on both sides
row,Structure (SMILES),binding response (% of control)
1,CCn1c(Cc2ccccc2)nnc1SCC(=O)Nc1ccccc1F,inconclusive: 92.2%
2,C#CCOc1ccccc1C(N)=O,inconclusive: 124%
3,NS(=O)(=O)c1ccc(Sc2ccccn2)c([N+](=O)[O-])c1,inconclusive: 128%
4,COC(=O)c1cccc(NC(=O)CSc2nc(O)c(-c3ccccc3)c(=O)[nH]2)c1,inconclusive: 111%
5,O=C(Cn1c2c(c(-c3ccccc3Cl)cc1=O)CCC2)NCCCN1CCOCC1,inconclusive: 117%
6,O=C(NNC(=O)c1ccc2ncccc2c1)c1ccc(Cl)cc1,inconclusive: 104%
7,CCOC(=O)c1sc(N)c(C(=O)OCC)c1C,inconclusive: 121%
8,CN(C)CCCN(Cc1ccc2c(c1)OCO2)C(=O)NC1CCCCC1,inconclusive: 32%
9,O=C(O)CCCCCCCCCCP(=O)(c1ccccc1)c1ccccc1,inconclusive: 87.9%
10,COc1ccc(C2CC(C)(c3ccc(OC)cc3)Nc3ccccc3N2)cc1 (stereo unspecified),inconclusive: 92.4%
11,C=CCNC(=O)CSc1nc2scc(-c3ccco3)c2c(=O)n1CC=C,inconclusive: 63.7%
12,CN=c1scc(-c2ccccc2F)n1/N=C/c1ccc(O)c(O)c1O,inconclusive: 50.3%
13,CCOc1ccc(N=C(NN)c2ccc3ccccc3n2)cc1,inactive: 113%
14,O=[N+]([O-])c1cc(C(F)(F)F)cc([N+](=O)[O-])c1Sc1n[nH]c(C(F)(F)F)n1,inconclusive: 109%
15,COc1ccc(C2/C=C\CN(CC3CC3)CC(=O)N2Cc2ccc(F)cc2)cc1 (stereo unspecified),inconclusive: 106%
16,CCc1nnc(NC(=O)c2n[nH]c(=O)c3ccccc23)s1,inconclusive: 108%
17,O=C1/C(=C/c2cccnc2)SC(=S)N1N1CCOCC1,inconclusive: 70.6%
18,OCCCc1nc2ccccc2[nH]1,inactive: 98.9%
19,Clc1ncc(CSc2ccccc2)s1,inconclusive: 97.6%
20,Cc1ccc(C2C3=C(CC(C)(C)CC3=O)Nc3onc(C)c32)cc1 (stereo unspecified),inactive: 136%
21,C[C@H](NC(=O)c1ccccc1Cl)C(=O)OCCOc1ccc(Cl)cc1,inconclusive: -79.2%
22,O=C(O)c1cccc(Nc2nc(Nc3ccccc3)nc(N3CCCC3)n2)c1,inactive: 77.7%
23,COC(=O)c1sc(-c2ccc(Cl)cc2)cc1NC(=O)COCC(=O)O,inconclusive: 99.2%
24,CC(C)=CCN1CCN(C/C(Cl)=C/c2ccccc2)CC1CCO (stereo unspecified),inconclusive: 100%
25,CCOc1cccc2sc(N(CCN(CC)CC)C(=O)c3cccc([N+](=O)[O-])c3)nc12,inconclusive: 91.7%
26,CN(C)c1ccc(C(=O)OCC(=O)Nc2ccc(N3CCOCC3)cc2)cc1,inconclusive: 146%

# A section from further up, as a working copy:
row,Structure (SMILES),binding response (% of control)
21,C[C@H](NC(=O)c1ccccc1Cl)C(=O)OCCOc1ccc(Cl)cc1,inconclusive: -79.2%
22,O=C(O)c1cccc(Nc2nc(Nc3ccccc3)nc(N3CCCC3)n2)c1,inactive: 77.7%
